According to article PMC8347620, “Arabidopsis G-Protein β Subunit AGB1 Negatively Regulates DNA Binding of MYB62, a Suppressor in the Gibberellin Pathway”:

Molecular target: T1, MBP-MYB62 (UniProt Q9C9G7)
T1 sequence (looked up, limits assumed): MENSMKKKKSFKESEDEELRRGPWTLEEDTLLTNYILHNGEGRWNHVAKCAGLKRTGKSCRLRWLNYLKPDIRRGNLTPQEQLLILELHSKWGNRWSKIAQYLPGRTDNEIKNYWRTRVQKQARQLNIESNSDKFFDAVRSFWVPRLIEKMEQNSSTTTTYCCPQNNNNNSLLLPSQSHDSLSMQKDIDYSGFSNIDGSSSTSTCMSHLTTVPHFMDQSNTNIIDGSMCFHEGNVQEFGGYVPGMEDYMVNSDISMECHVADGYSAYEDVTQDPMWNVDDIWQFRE
Assay: EMSA
Conditions: GST-AGB1 added (reduces MYB62 binding); EMSA: 2.5% glycerol, 50 mM KCl, 5 mM MgCl2, 10 mM EDTA, 30 min, room temperature; pH not stated; recombinant protein; protein details: MBP (pMAL-c2x)

Sequence: AAGCCCTTGGTTGGGGATGG (double strand) [ProGA2ox7 probe (MYB element)]
- binding result: binds more weakly

For at least one entry, the source does not settle the construct or the ends of the probe. Weaker means in comparison with the reference protein, sequence or condition of that experiment. Protein sequences can lack the tags named with them.
